Laboratory results taken from article PMC10298151.
These are yes or no findings as the source states them, for the method shown. Binding seen in cells or lysates may run through a third protein. Some entries that bind do so weakly or less than the wild type.

The chains behind the UniProt entries cited, without tags or fusion partners. Where a name states a change or a piece, a line headed by the entry shows the natural chain unless it says otherwise. A line that says so, or that is headed by a name, gives the form on record, which may keep a tag or linker.
UniProt Q00987: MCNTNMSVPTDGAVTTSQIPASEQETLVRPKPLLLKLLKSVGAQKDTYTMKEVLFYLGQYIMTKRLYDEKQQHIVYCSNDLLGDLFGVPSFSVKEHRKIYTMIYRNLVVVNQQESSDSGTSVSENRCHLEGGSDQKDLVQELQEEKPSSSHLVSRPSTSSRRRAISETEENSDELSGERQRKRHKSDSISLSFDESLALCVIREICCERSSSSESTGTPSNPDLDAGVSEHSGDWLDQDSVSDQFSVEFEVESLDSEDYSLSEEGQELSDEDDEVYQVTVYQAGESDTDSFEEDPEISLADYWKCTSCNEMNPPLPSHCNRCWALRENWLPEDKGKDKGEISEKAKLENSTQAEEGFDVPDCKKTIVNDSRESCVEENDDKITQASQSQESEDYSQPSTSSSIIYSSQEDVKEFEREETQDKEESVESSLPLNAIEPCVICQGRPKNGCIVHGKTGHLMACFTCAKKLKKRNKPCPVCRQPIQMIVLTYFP
UniProt P14416: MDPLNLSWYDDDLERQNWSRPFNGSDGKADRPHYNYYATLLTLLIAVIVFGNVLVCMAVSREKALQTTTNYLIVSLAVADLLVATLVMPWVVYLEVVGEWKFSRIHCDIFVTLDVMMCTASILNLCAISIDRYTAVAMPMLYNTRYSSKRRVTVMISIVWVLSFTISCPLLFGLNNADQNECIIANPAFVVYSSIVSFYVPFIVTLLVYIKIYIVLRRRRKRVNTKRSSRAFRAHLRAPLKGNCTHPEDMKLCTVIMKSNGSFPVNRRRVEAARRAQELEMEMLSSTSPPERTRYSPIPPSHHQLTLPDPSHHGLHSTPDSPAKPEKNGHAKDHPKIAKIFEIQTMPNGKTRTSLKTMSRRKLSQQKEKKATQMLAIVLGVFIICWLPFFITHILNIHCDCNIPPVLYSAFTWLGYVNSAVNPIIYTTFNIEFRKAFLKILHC
FLAG-[βarr]D2R (P14416, form named): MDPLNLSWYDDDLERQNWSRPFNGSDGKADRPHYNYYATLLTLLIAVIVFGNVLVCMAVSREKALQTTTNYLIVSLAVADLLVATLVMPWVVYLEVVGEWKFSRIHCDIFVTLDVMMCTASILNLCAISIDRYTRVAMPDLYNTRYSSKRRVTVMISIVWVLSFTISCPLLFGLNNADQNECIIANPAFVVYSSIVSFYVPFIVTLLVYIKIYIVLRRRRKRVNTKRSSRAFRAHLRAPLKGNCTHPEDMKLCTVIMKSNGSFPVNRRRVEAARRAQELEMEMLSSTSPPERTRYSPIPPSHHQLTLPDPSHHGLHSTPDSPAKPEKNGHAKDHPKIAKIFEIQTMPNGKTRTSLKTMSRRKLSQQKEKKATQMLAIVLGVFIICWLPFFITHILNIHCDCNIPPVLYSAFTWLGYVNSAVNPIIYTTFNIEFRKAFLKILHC
UniProt P25098: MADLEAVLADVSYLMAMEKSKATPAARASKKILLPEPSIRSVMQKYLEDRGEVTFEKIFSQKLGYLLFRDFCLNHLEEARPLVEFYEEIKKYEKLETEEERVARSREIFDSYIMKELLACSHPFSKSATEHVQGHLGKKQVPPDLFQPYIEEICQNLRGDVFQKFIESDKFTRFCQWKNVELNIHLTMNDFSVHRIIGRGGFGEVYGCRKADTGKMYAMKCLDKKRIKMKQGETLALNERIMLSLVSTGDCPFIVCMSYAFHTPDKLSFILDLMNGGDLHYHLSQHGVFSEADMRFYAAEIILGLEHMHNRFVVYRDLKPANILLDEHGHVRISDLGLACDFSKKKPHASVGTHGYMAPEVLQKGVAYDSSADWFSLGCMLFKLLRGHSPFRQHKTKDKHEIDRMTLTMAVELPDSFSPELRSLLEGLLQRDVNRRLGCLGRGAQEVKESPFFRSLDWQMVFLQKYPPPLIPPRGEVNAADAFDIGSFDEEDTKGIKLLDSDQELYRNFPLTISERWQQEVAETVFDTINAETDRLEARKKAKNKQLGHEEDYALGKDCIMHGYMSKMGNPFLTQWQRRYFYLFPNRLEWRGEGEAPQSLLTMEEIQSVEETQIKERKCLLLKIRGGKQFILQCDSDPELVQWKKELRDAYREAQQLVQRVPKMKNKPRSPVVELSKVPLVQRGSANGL

Key:
FLAG-Mdm2 [1] = target: FLAG-Mdm2 (UniProt Q00987); assay: co-IP; HEK 293 cells co-transfected, treated with vehicle or 10 μM DA for 2 min; lysates incubated with anti-FLAG agarose beads 2-3 h at 4 °C, washed three times, immunoblot
FLAG-[βarr]D2R (human) [2] = target: FLAG-[βarr]D2R (human) (UniProt P14416); assay: as above
FLAG-Mdm2 [3] = target: FLAG-Mdm2 (UniProt Q00987); assay: condition: only cells pretreated with 10 μM PP2 for 30 min; co-IP; as a1, but cells pretreated with 10 μM PP2 (Src family kinase inhibitor) for 30 min before 10 μM DA for 2 min; anti-FLAG beads, immunoblot with anti-GRK2
FLAG-[βarr]D2R (human) [4] = target: FLAG-[βarr]D2R (human) (UniProt P14416); assay: as above

Substance	binding (FLAG-Mdm2 [1])	binding (FLAG-[βarr]D2R (human) [2])	binding (FLAG-Mdm2 [3])	binding (FLAG-[βarr]D2R (human) [4])
GFP-GRK2 (from UniProt P25098 1-689) (enzyme)	binds	binds	–	–
GRK2 (from UniProt P25098 1-689) (enzyme)	binds	binds	no binding	no binding
